# Structures can show the parent of a compound that is named as a salt. The list shows a part of the results. Hit calls seldom repeat between salt and free forms of one compound.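 In K562 cells expressing nanoluciferase-fused kinases, luminescence was recorded at 4 h intervals between 2 and 18 h, normalized as percent of control with DMSO at 100% and a positive control at 0%. A significant (2 sigma) signal drop marks a time point as decreased. The authors' rule for a hit is not shown and takes in more than the number of time points.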
# Protein sequences, listed by entry. Tags and fused reporters are not part of them. Lines headed by an entry give the natural chain unless they say otherwise; changes in a name come on top.
# UniProt Q15208: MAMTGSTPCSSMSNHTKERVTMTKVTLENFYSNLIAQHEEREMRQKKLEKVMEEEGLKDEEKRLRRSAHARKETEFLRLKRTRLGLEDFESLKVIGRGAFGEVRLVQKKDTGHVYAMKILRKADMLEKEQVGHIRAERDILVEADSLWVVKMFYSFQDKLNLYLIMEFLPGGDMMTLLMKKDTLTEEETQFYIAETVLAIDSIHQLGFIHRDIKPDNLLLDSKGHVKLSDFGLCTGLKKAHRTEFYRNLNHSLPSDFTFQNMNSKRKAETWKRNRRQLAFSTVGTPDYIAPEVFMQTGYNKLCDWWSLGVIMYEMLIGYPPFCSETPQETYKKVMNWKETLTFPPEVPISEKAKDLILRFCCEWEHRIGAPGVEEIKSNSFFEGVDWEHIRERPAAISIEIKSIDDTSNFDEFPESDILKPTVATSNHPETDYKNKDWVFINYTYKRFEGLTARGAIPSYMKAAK
# UniProt P42680: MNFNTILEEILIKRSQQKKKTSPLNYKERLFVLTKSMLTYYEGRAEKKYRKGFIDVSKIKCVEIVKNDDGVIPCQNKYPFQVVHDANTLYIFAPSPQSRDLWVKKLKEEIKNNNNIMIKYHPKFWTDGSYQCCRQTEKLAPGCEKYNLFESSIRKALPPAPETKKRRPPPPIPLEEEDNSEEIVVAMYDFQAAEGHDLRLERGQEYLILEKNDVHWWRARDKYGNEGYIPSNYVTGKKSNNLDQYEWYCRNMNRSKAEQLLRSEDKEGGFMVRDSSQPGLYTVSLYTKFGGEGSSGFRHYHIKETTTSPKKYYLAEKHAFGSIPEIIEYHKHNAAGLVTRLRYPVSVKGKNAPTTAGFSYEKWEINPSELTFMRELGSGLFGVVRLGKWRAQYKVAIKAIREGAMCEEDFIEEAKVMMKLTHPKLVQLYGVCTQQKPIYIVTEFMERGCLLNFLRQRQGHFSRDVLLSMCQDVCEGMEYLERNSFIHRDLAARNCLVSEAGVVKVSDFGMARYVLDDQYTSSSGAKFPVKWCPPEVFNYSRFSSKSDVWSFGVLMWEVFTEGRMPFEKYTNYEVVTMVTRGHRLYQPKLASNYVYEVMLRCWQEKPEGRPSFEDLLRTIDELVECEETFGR
# UniProt P29597: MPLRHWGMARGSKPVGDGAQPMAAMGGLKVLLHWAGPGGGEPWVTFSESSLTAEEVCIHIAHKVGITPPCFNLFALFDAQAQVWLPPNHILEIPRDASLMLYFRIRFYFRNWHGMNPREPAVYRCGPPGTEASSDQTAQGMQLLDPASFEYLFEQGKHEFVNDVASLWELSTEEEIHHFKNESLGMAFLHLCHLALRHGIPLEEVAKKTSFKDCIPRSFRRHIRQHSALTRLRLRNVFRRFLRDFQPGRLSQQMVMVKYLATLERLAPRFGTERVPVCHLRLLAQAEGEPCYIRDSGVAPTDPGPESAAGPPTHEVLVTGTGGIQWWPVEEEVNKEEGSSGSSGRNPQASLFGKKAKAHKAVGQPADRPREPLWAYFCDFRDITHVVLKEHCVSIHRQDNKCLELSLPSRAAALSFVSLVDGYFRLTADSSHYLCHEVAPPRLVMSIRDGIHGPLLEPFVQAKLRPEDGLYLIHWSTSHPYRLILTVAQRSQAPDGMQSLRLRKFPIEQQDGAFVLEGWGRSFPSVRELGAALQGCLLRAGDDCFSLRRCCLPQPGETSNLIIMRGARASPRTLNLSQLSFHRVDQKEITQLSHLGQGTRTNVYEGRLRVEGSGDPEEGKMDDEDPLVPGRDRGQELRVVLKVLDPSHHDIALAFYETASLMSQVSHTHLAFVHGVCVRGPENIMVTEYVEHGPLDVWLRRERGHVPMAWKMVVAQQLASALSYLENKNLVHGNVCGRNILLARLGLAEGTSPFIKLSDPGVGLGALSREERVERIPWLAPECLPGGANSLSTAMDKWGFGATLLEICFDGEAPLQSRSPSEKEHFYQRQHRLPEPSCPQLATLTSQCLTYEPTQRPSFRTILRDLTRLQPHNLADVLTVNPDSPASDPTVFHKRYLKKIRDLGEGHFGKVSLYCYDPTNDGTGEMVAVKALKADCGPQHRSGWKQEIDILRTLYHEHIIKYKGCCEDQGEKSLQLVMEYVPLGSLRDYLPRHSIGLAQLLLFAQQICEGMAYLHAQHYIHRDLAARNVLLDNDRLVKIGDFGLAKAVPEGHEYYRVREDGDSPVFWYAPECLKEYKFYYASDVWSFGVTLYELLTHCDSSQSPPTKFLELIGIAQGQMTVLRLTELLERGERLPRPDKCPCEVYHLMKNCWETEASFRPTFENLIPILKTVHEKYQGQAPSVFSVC
# UniProt Q6PHR2: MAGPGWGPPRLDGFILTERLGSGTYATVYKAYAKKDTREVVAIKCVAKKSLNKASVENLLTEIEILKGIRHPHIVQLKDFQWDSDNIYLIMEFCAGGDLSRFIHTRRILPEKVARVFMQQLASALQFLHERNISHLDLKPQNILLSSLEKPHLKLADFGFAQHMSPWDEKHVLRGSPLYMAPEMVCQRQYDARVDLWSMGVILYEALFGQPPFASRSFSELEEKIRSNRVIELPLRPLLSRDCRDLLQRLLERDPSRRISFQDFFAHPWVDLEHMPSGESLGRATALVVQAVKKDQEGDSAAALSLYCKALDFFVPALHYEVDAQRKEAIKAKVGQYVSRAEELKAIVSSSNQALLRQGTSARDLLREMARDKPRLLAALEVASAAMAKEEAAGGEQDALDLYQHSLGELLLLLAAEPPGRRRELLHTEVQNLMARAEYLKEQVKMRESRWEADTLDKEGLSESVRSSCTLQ
# UniProt P07947, whole entry, looked up: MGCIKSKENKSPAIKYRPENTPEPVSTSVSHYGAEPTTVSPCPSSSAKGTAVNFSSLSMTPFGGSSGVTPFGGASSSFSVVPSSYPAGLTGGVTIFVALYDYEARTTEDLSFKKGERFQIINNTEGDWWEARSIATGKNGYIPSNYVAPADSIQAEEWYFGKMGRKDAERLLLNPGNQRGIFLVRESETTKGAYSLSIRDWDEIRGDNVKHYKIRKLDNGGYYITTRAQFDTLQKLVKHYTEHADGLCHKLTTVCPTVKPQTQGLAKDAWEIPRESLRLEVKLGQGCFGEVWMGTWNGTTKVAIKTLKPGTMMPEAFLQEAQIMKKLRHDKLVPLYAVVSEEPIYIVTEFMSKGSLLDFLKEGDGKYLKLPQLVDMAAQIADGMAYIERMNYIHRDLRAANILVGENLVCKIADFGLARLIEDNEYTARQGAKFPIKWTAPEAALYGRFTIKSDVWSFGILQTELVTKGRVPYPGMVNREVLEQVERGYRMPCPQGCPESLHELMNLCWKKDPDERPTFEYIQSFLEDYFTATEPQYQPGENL
# UniProt P43403: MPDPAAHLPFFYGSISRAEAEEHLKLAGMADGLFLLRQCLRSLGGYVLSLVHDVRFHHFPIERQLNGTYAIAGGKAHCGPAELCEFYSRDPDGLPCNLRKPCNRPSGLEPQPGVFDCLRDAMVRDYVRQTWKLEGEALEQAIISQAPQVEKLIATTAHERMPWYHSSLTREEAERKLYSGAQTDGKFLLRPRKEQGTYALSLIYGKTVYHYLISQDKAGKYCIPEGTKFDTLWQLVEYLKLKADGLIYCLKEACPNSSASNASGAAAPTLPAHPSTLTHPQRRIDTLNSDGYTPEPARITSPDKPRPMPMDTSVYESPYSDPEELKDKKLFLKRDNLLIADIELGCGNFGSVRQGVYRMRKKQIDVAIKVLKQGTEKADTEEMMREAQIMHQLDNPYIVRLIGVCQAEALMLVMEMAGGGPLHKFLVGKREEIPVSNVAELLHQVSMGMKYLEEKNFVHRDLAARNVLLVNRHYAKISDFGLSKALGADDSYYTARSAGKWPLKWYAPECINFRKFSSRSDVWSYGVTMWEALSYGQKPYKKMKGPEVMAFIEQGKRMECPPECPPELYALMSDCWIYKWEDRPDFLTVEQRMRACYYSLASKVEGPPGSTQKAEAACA
# UniProt P11802: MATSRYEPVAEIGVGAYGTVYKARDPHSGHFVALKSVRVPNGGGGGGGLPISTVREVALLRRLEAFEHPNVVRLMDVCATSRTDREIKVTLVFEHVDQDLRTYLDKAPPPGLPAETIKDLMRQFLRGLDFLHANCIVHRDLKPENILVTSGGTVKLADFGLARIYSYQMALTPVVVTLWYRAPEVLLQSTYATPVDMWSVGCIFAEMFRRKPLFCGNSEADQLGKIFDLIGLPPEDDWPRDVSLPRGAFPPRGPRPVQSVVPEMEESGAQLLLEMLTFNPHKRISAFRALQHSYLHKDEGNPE
# UniProt P50613: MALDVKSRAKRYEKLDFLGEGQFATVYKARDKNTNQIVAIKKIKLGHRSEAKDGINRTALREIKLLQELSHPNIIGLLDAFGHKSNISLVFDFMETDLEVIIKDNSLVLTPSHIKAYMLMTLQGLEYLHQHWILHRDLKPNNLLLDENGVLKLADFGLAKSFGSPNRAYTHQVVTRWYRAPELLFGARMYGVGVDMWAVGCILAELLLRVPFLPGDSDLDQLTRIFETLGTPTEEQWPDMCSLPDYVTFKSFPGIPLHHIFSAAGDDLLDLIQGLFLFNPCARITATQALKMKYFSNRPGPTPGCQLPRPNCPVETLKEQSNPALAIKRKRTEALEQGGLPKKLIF
# UniProt P50750, whole entry: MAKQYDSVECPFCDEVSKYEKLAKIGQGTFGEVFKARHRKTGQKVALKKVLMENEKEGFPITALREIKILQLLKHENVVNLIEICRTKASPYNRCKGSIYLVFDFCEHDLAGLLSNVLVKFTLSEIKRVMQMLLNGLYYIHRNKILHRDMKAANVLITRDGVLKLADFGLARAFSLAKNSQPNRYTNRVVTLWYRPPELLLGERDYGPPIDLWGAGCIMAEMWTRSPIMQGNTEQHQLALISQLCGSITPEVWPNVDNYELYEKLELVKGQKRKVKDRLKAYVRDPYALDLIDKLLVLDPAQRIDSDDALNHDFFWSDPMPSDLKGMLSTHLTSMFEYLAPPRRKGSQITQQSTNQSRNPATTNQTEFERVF
# Tests used:
# Details in all cases: K562, 2-18 h
# STK38 = STK38 (UniProt Q15208); test: kinase-Nluc reporter destabilization hit call (1 = scored as downregulated) (binary); higher = compound decreases kinase abundance
# SYK = SYK (UniProt P43405); test: as above
# TEC = TEC (UniProt P42680); test: as above
# TYK2 = TYK2 (UniProt P29597); test: as above
# ULK3 = ULK3 (UniProt Q6PHR2); test: as above
# YES1 = YES1 (UniProt P07947); test: as above
# ZAK = ZAK (UniProt Q9NYL2); test: as above
# ZAP70 = ZAP70 (UniProt P43403); test: as above
# CDK4 = CDK4 (UniProt P11802); test: number of time points (of 4; 2 h point missing) at which kinase-Nluc abundance scored as decreased, DMSO-normalised (count); higher = more persistent destabilization
# CDK7 = CDK7 (UniProt P50613); test: as above
# CDK9 = CDK9 (UniProt P50750); test: as above
Compound,kinase-Nluc reporter destabilization hit call (STK38; 10 µM),kinase-Nluc reporter destabilization hit call (SYK; 10 µM),kinase-Nluc reporter destabilization hit call (TEC; 10 µM),kinase-Nluc reporter destabilization hit call (TYK2; 10 µM),kinase-Nluc reporter destabilization hit call (ULK3; 10 µM),kinase-Nluc reporter destabilization hit call (YES1; 10 µM),kinase-Nluc reporter destabilization hit call (ZAK; 10 µM),kinase-Nluc reporter destabilization hit call (ZAP70; 10 µM),number of time points (CDK4; 10 µM),number of time points (CDK7; 10 µM),number of time points (CDK9; 10 µM),kinase-Nluc reporter destabilization hit call (STK38; 2.5 µM),kinase-Nluc reporter destabilization hit call (SYK; 2.5 µM),kinase-Nluc reporter destabilization hit call (TEC; 2.5 µM),kinase-Nluc reporter destabilization hit call (TYK2; 2.5 µM),kinase-Nluc reporter destabilization hit call (ULK3; 2.5 µM),kinase-Nluc reporter destabilization hit call (YES1; 2.5 µM),kinase-Nluc reporter destabilization hit call (ZAK; 2.5 µM),kinase-Nluc reporter destabilization hit call (ZAP70; 2.5 µM),number of time points (CDK4; 2.5 µM),number of time points (CDK7; 2.5 µM),number of time points (CDK9; 2.5 µM)
CN(C)C(=O)c1cc2cnc(Nc3ccc(N4CCNCC4)cn3)nc2n1C1CCCC1 [Ribociclib succinate],inactive: 0,inactive: 0,inactive: 0,inactive: 0,inactive: 0,inactive: 0,inactive: 0,inactive: 0,0,0,0,,,,,,,,,,,
C=CC(=O)Nc1cc(Nc2ncc(C(=O)OC(C)C)c(-c3cn(C)c4ccccc34)n2)c(OC)cc1N(C)CCN(C)C [Mobocertinib (succinate)],inactive: 0,inactive: 0,inactive: 0,inactive: 0,inactive: 0,inactive: 0,inactive: 0,inactive: 0,0,0,0,,,,,,,,,,,
CC(=O)N[C@H](Cc1ccc(O)cc1)C(=O)N[C@H](CCCN=C(N)N)C(=O)N[C@H](Cc1ccccc1)C(N)=O,inactive: 0,inactive: 0,inactive: 0,inactive: 0,inactive: 0,inactive: 0,inactive: 0,inactive: 0,0,0,0,,,,,,,,,,,
CNc1ncc2cc(-c3ccc(-c4cccc(C)n4)cc3Cl)c(=O)n(C[C@H]3OC[C@H](N)CO3)c2n1,inactive: 0,inactive: 0,inactive: 0,inactive: 0,inactive: 0,inactive: 0,inactive: 0,inactive: 0,0,0,0,,,,,,,,,,,
COc1cc2c(-c3cnn4cc(N5CCC(N6CCN(C)CC6)CC5)cnc34)ccnc2cc1F [ALK2-IN-4 (succinate)],inactive: 0,inactive: 0,inactive: 0,inactive: 0,inactive: 0,inactive: 0,inactive: 0,inactive: 0,0,0,0,,,,,,,,,,,
CC(C)Oc1ccc(-c2nn([C@@H](C)c3oc4ccc(F)cc4c(=O)c3-c3cccc(F)c3)c3ncnc(N)c23)cc1F [Umbralisib],,,,,,,,,,,,inactive: 0,inactive: 0,inactive: 0,inactive: 0,inactive: 0,inactive: 0,inactive: 0,inactive: 0,0,0,0
O=C(O)c1ccc2c(c1)nc(Nc1cccc(Cl)c1)c1ccncc12 [Silmitasertib],inactive: 0,inactive: 0,inactive: 0,active: 1,inactive: 0,inactive: 0,inactive: 0,inactive: 0,0,0,4,,,,,,,,,,,
CS(=O)(=O)N1CCN(Cc2cc3nc(-c4cccc5[nH]ncc45)nc(N4CCOCC4)c3s2)CC1 [Pictilisib],inactive: 0,inactive: 0,inactive: 0,inactive: 0,inactive: 0,inactive: 0,inactive: 0,inactive: 0,0,0,0,,,,,,,,,,,
COc1ccc(S(=O)(=O)N(CCO)c2ccccc2CN(C)C/C=C/c2ccc(Cl)cc2)cc1 [KN-93 (phosphate)],,,,,,,,,,,,inactive: 0,inactive: 0,inactive: 0,inactive: 0,inactive: 0,inactive: 0,inactive: 0,inactive: 0,0,0,0
N#CC[C@H](C1CCCC1)n1cc(-c2ncnc3[nH]ccc23)cn1 [Ruxolitinib (phosphate)],inactive: 0,inactive: 0,inactive: 0,inactive: 0,inactive: 0,inactive: 0,inactive: 0,inactive: 0,0,0,0,,,,,,,,,,,
CN(C)C(=O)c1cc2cnc(Nc3ccc(N4CCNCC4)cn3)nc2n1C1CCCC1 [Ribociclib],inactive: 0,inactive: 0,inactive: 0,inactive: 0,inactive: 0,inactive: 0,inactive: 0,inactive: 0,0,0,0,,,,,,,,,,,
CN(C)C/C=C/C(=O)Nc1cc2c(Nc3ccc(F)c(Cl)c3)ncnc2cc1O[C@H]1CCOC1 [Afatinib],inactive: 0,inactive: 0,inactive: 0,inactive: 0,inactive: 0,inactive: 0,inactive: 0,inactive: 0,0,0,4,,,,,,,,,,,
Clc1ccc(C2(c3ccc(-c4cn[nH]c4)cc3)CCNCC2)cc1,inactive: 0,inactive: 0,inactive: 0,inactive: 0,inactive: 0,inactive: 0,inactive: 0,inactive: 0,0,2,1,,,,,,,,,,,
C=CC(=O)Nc1cc(Nc2ncc(C(=O)OC(C)C)c(-c3cn(C)c4ccccc34)n2)c(OC)cc1N(C)CCN(C)C [Mobocertinib],inactive: 0,inactive: 0,inactive: 0,inactive: 0,inactive: 0,inactive: 0,inactive: 0,inactive: 0,0,0,0,,,,,,,,,,,
COc1cc2c(cc1OC)-c1c(C)c3ccc(OC)c(OC)c3c[n+]1CC2 [Dehydrocorydaline (chloride)],inactive: 0,inactive: 0,inactive: 0,inactive: 0,inactive: 0,inactive: 0,inactive: 0,inactive: 0,0,0,0,,,,,,,,,,,
Cc1cccc(-c2[nH]c(CNc3ccccc3F)nc2-c2ccc3ncnn3c2)n1 [Vactosertib (Hydrochloride)],,,,,,,,,,,,inactive: 0,inactive: 0,inactive: 0,inactive: 0,inactive: 0,inactive: 0,inactive: 0,inactive: 0,0,0,0
Oc1cccc(-c2nc(N3CCOCC3)c3oc4ncccc4c3n2)c1 [PI-103 (Hydrochloride)],,,,,,,,,,,,inactive: 0,inactive: 0,inactive: 0,inactive: 0,inactive: 0,inactive: 0,inactive: 0,inactive: 0,0,0,0
COc1ccc2c(c1)C(c1ccc(F)cc1)=C(CN1CCCC1)CO2,inactive: 0,inactive: 0,inactive: 0,inactive: 0,inactive: 0,inactive: 0,inactive: 0,inactive: 0,0,0,0,,,,,,,,,,,
N#CCNC(=O)c1ccc(-c2ccnc(Nc3ccc(N4CCOCC4)cc3)n2)cc1 [Momelotinib sulfate],inactive: 0,inactive: 0,inactive: 0,inactive: 0,inactive: 0,inactive: 0,inactive: 0,inactive: 0,0,0,0,,,,,,,,,,,
CC(C)(C)n1nc(-c2cccc3ccccc23)c2c(N)ncnc21 [1-Naphthyl PP1],inactive: 0,inactive: 0,inactive: 0,inactive: 0,inactive: 0,inactive: 0,inactive: 0,inactive: 0,0,0,0,,,,,,,,,,,
CCS(=O)(=O)N1CCN(c2ccc(Nc3ncc(C(N)=O)c(NC4CC4)n3)cc2)CC1 [Cerdulatinib (hydrochloride)],inactive: 0,inactive: 0,inactive: 0,inactive: 0,active: 1,inactive: 0,inactive: 0,inactive: 0,0,4,1,,,,,,,,,,,
COc1cc2nccc(Nc3cc(OC)c(OC)c(OC)c3)c2cc1OC [GAK inhibitor 49],inactive: 0,inactive: 0,inactive: 0,inactive: 0,inactive: 0,inactive: 0,inactive: 0,inactive: 0,0,3,0,,,,,,,,,,,
C[C@H](CCC(=O)NCCS(=O)(=O)O)[C@H]1CC[C@H]2[C@@H]3[C@@H](O)C[C@@H]4C[C@H](O)CC[C@]4(C)[C@H]3CC[C@]12C [Tauroursodeoxycholate (dihydrate)],inactive: 0,inactive: 0,inactive: 0,inactive: 0,inactive: 0,inactive: 0,inactive: 0,inactive: 0,0,0,0,,,,,,,,,,,
Cn1cc(-c2cnc3ccc4ccc(CS(=O)(=O)NCc5ccccn5)cc4c(=O)c3c2)cn1,inactive: 0,inactive: 0,inactive: 0,inactive: 0,inactive: 0,inactive: 0,inactive: 0,inactive: 0,0,0,0,,,,,,,,,,,
CN(C)C(=N)NC(=N)N [Metformin (hydrochloride)],inactive: 0,inactive: 0,inactive: 0,inactive: 0,inactive: 0,inactive: 0,inactive: 0,inactive: 0,0,0,0,,,,,,,,,,,
C=CC(=O)Nc1cc(Nc2nccc(-c3cn(C4CC4)c4ccccc34)n2)c(OC)cc1N(C)CCN(C)C [Almonertinib (hydrochloride)],,,,,,,,,,,,inactive: 0,inactive: 0,inactive: 0,inactive: 0,inactive: 0,inactive: 0,inactive: 0,inactive: 0,0,0,0

# Only kinase-Nluc reporter destabilization hit call (YES1; 10 µM) and number of time points (CDK9; 2.5 µM) (two entries from above):
Compound | kinase-Nluc reporter destabilization hit call (YES1; 10 µM) | number of time points (CDK9; 2.5 µM)
COc1cc2c(cc1OC)-c1c(C)c3ccc(OC)c(OC)c3c[n+]1CC2 [Dehydrocorydaline (chloride)] | inactive: 0 | 
N#CCNC(=O)c1ccc(-c2ccnc(Nc3ccc(N4CCOCC4)cc3)n2)cc1 [Momelotinib sulfate] | inactive: 0 | 

# — the supplement of paper PMC12823440, “Inhibitors supercharge kinase turnover through native proteolytic circuits” (Nature, 2025)
